The list is a part of this screen's results and no random one: it gathers tests that were run many times, whatever their T/C, doses with no T/C, and many T/C values between a quarter and a half above the control. Other doses and runs of a compound stand elsewhere. T/C is the treated group as % of the vehicle group. Some entries give survivors of the animals treated and no T/C: the source holds a T/C of zero for them, seemingly a mark for toxic or unscored doses. Some survivor counts are full or nearly so, which does not show that the dose was tolerated: survival well below the control is almost never listed, so the zero probably covers shortened survival too. Survivors were counted at the toxicity check, usually on the fifth day, unless a day is given; later deaths do not show. Schedule codes are those of the source, read here as Q, the interval in days (D) or hours (H), X, the number of doses. Some doses were run more than once; their values stand side by side, smallest first. Where survival is the endpoint, the PubChem record calls one and a half times the control and up active, and a quarter to a half above the control has no call in these data; cut-offs in other NCI protocols can differ. Some T/C values are followed by the survivors on the day toxicity was checked, most often the fifth; where none is given, no animal had died by that day.
System: BDF1 mice, P388 leukemia ip, median survival T/C
Assay: NCI In Vivo Anticancer Drug Screen. Data for tumor model P388 Leukemia (intraperitoneal) in B6D2F1 (BDF1) mice
Conditions: T/C endpoint: median survival time, higher T/C = longer survival
Procedure, shortened: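 Each value expresses how treatment altered survival: treated-mouse outcome over vehicle-mouse outcome, both groups bearing the transplanted tumour.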

[1] = dose: 200.0 mg/kg/injection, schedule: Q01DX009 (ip), vehicle: saline with Tween-80
[2] = dose: 400.0 mg/kg/injection, schedule: Q01DX009 (ip), vehicle: saline with Tween-80

## COc1cc([C@@H]2c3cc4c(cc3[C@H](OC(C)=O)[C@H]3COC(=O)[C@@H]23)OCO4)cc(OC)c1OC
dose: 33.0 mg/kg/injection, schedule: Q01DX009 (ip), vehicle: saline with Tween-80
  T/C: 136 % of control [5 of 6 alive]
dose: 44.0 mg/kg/injection, schedule: Q04DX003 (ip), vehicle: saline sonified
  survivor count: 6 of 6
dose: 75.0 mg/kg/injection, schedule: Q01DX009 (ip), vehicle: saline with Tween-80
  survivor count: 4 of 6
dose: 88.0 mg/kg/injection, schedule: Q04DX003 (ip), vehicle: saline with Tween-80
  T/C: 130 % of control [5 of 6 alive]
dose: 100.0 mg/kg/injection, schedule: Q01DX010 (ip), vehicle: carboxymethylcellulose (CMC)
  survivor count: 6 of 6
dose: 100.0 mg/kg/injection, schedule: Q04DX003 (ip), vehicle: saline sonified
  T/C: 133 % of control
dose: 132.0 mg/kg/injection, schedule: Q04DX003 (ip), vehicle: saline with Tween-80
  T/C: 140 % of control
dose: 200.0 mg/kg/injection, schedule: Q04DX003 (ip), vehicle: saline with Tween-80
  T/C: 140 % of control
dose: 300.0 mg/kg/injection, schedule: Q04DX003 (ip), vehicle: saline with Tween-80
  survivor count: 4 of 6 and 6 of 6

## CC(C)CCCc1c[nH]c(=O)[nH]c1=O
dose: 100.0 mg/kg/injection, schedule: Q04DX003 (ip), vehicle: Klucel (hydroxypropylcellulose) (HPC)
  survivor count: 6 of 6
dose: 200.0 mg/kg/injection, schedule: Q04DX003 (ip), vehicle: Klucel (hydroxypropylcellulose) (HPC)
  survivor count: 6 of 6
dose: 400.0 mg/kg/injection, schedule: Q04DX003 (ip), vehicle: Klucel (hydroxypropylcellulose) (HPC)
  survivor count: 6 of 6

## CO[C@@H]1[C@H](O)CC[C@]2(CO2)[C@H]1[C@@]1(C)O[C@@H]1CC=C(C)C
dose: 3.13 mg/kg/injection, schedule: Q01DX009 (ip), vehicle: saline
  survivor count: 6 of 6
dose: 6.25 mg/kg/injection, schedule: Q01DX009 (ip), vehicle: saline
  survivor count: 6 of 6
dose: 25.0 mg/kg/injection, schedule: Q01DX009 (ip), vehicle: saline with Tween-80
  T/C: 130 % of control
dose: 25.0 mg/kg/injection, schedule: Q01DX009 (ip), vehicle: saline
  survivor count: 6 of 6
dose: 37.5 mg/kg/injection, schedule: Q01DX009 (ip), vehicle: saline
  survivor count: 6 of 6

## Cc1ccc(C2(C#N)CCCCC2)cc1
dose: 100.0 mg/kg/injection, schedule: Q01DX009 (ip), vehicle: saline with Tween-80
  T/C: 125 % of control

## CCNC(C)(C)C(S)c1ccc(Cl)s1 (stereo not drawn)
dose: 50.0 mg/kg/injection, schedule: Q04DX003 (ip), vehicle: saline with Tween-80
  T/C: 145 % of control
[1]
  survivor count: 3 of 6
[2]
  survivor count: 0 of 6
dose: 400.0 mg/kg/injection, schedule: Q04DX003 (ip), vehicle: saline with Tween-80
  survivor count: 2 of 6

## CC(NC(=O)C(C)NC(=O)C(N)CCS(C)(=O)=NP(=O)(O)O)C(=O)O (stereo not drawn)
dose: 50.0 mg/kg/injection, schedule: Q01DX009 (ip), vehicle: saline
  survivor count: 1 of 3

## CCOC(=O)C(Cc1ccc(N(CCCl)CCCl)cc1)NC(=O)C(CC(C)C)NC(C)=O (stereo not drawn)
dose: 20.0 mg/kg/injection, schedule: Q04DX003 (ip), vehicle: water
  T/C: 131 % of control

## N#CCCN(C(=S)Nc1cccc(C(F)(F)F)c1)C1CCCCC1
[1]
  T/C: 129 % of control
[2]
  T/C: 126 [5 of 6 alive] and 137 % of control

## N#CCNC(=O)c1ccccc1
dose: 25.0 mg/kg/injection, schedule: Q01DX009 (ip), vehicle: Klucel (hydroxypropylcellulose) (HPC)
  survivor count: 6 of 6
dose: 50.0 mg/kg/injection, schedule: Q01DX009 (ip), vehicle: Klucel (hydroxypropylcellulose) (HPC)
  survivor count: 5 of 6
dose: 100.0 mg/kg/injection, schedule: Q01DX009 (ip), vehicle: Klucel (hydroxypropylcellulose) (HPC)
  survivor count: 0 of 6

## NCCNc1ccc(NCCN)c2c1C(=O)c1ccccc1C2=O
dose: 12.5 mg/kg/injection, schedule: Q01DX009 (ip), vehicle: other
  T/C: 148 % of control
dose: 25.0 mg/kg/injection, schedule: Q01DX009 (ip), vehicle: other
  survivor count: 6 of 6
dose: 50.0 mg/kg/injection, schedule: Q01DX009 (ip), vehicle: other
  survivor count: 0 of 6
dose: 100.0 mg/kg/injection, schedule: Q01DX009 (ip), vehicle: other
  survivor count: 0 of 6

Reference: PubChem BioAssay AID328 (DTP/NCI, 2004)
